# Test results published in PubChem BioAssay AID1671190 (National Center for Advancing Translational Sciences (NCATS), 2021).
# Sequences of proteins named here, by UniProt entry; tags and fusion partners are left off. A change or cut given only in a name is not applied to a line headed by its entry.
# UniProt P18054: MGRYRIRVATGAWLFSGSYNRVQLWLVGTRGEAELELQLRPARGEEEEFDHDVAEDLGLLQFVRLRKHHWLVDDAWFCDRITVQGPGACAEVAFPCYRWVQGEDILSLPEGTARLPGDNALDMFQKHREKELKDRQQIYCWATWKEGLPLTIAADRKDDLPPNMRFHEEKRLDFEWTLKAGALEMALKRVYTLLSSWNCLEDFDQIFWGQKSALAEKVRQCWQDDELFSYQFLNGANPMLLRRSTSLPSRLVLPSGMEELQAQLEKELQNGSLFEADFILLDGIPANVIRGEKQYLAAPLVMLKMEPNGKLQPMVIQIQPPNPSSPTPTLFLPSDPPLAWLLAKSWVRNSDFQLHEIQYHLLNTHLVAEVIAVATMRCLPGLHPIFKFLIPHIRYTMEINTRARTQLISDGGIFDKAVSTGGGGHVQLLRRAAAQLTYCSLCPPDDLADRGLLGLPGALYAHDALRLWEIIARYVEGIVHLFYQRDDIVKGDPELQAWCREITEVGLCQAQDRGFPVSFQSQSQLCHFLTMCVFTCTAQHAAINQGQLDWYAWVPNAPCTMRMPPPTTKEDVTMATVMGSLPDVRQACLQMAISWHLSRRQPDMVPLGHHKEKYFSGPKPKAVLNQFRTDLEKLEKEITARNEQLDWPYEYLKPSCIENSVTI
# About 6,100 (1.1%) of roughly 580,000 compounds were called active. The shares of active, inactive and inconclusive entries below differ from those in the screen. Calls come from the whole dose curve; as a rule, active = well fitted inhibition curve with a large enough effect; inconclusive = small, poorly fitted or top-dose-only effect, or another doubt; inactive = no such curve, though single readings can be large or run the other way. Where the call is inconclusive, the potency comes from a doubtful curve fit.
# Target: Polyunsaturated fatty acid lipoxygenase ALOX12 (Homo sapiens) (UniProt P18054)
# Test: Primary qHTS assay for inhibitors of human arachidonate 12S-lipoxygenase (ALOX12): Round 2
# Conditions: purified 12hLO, xylenol orange hydroperoxide absorbance; series mostly up to 108 µM
# Procedure, shortened: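 Hydroperoxide product was detected by ferrous iron/xylenol orange as the 573 to 405 nm absorbance ratio. Arachidonic acid at 40 uM (final) was turned over for 30 min at room temperature by 150 nM human 12hLO, pH 7.0 Hepes buffer, after 15 min compound preincubation.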
# Potency is the fitted concentration of half-maximal effect.
row,Compound,Potency
1,Nc1ccc(CN2CCCC3(Cc4ccccc4CNC3=O)C2)cc1 (configuration not stated),"inconclusive: 20 µM [inhibitor, full curve, poor fit]"
2,O=C1CC(Cc2ccc(Br)cc2)C(=O)N1c1ccc2ccccc2n1 (configuration not stated),"inconclusive: 126 µM [inhibitor, single point]"
3,Nc1ccccc1SC1CC(=O)N(c2ccc3c(c2)OCCO3)C1=O (configuration not stated),"inconclusive: 0.631 µM [inhibitor, full curve, poor fit]"
4,S=c1[nH]cc(Cc2ccccc2)s1,active: 7.94 µM
5,C=C(C)C(=O)Oc1ccc(N=Nc2ccc(C)cc2)ccc1=O,active: 22.4 µM
6,CCC(C)N(C(=O)COc1ccc(Cl)c2cccnc12)C1CCS(=O)(=O)C1 (configuration not stated),"inconclusive: 17.8 µM [inhibitor, partial curve, poor fit]"
7,O=C(Nc1cccc(S(=O)(=O)N2CCCCC2)c1)c1ccc2c(=O)n3c(nc2c1)CCCCC3,inactive
8,Cc1ccc2c(=O)c(-c3nc(-c4ccccc4C)no3)cn(CC(=O)NCc3cccs3)c2n1,"inconclusive: 39.8 µM [inhibitor, partial curve, poor fit]"
9,CS(=O)(=O)c1cccc(C(=O)Nc2cccc(S(=O)(=O)N3CCCC3)c2)c1,inactive
10,COCCOC(=O)c1[nH]c2c(c1C)C(=O)CC(c1cccs1)C2 (configuration not stated),inactive
11,COc1cc(C(=O)NC(C)c2ccc(-n3ccnc3)cc2)cc(OC)c1C (configuration not stated),"inconclusive: 50.1 µM [inhibitor, single point]"
12,CC(C)c1nc2ccccn2c1NC1CCCCC1,"inconclusive: 79.4 µM [inhibitor, single point]"
13,COC(=O)c1ccc(NC(=O)CCN2CCN(Cc3ccccc3)CC2)cc1,"inconclusive: 11.2 µM [inhibitor, full curve]"
14,OCCN(Cc1ccccc1)Cc1ccc(F)c(F)c1,"inconclusive: 2.51 µM [inhibitor, full curve, poor fit]"
15,Cc1ccc(-c2nn3c(-c4ccccc4C)nnc3c3ccccc23)cc1,inactive
16,Cc1cccc(NC(=O)C2CCN(S(=O)(=O)c3c(C)noc3C)CC2)c1,inactive
17,O=S(=O)(c1ccccc1)[C@@]1(c2ccccc2)C[C@@H]2ON=C(c3cccc(Br)c3)[C@@H]2C1,inactive
18,OCCNCCCCCOc1ccc(F)cc1,"inconclusive: 35.5 µM [inhibitor, partial curve, poor fit]"
19,CCOC(=O)/C(=N\Nc1ccc(Cl)cc1)Sc1nnc(-c2ccc(OC)cc2)n1C,"inconclusive: 70.8 µM [inhibitor, partial curve, poor fit]"
20,Cc1ccc(/C=C(/C#N)C(=O)NC2CCCCC2)cc1C,"inconclusive: 0.631 µM [inhibitor, full curve, poor fit]"
21,CN(Cc1ccccc1)CC1C2CCC(C2)C1O (configuration not stated),"inconclusive: 0.282 µM [inhibitor, full curve, poor fit]"
22,CCCC(=O)Nc1ccc2oc(-c3ccc(F)cc3)nc2c1,inactive
23,COc1ccc(-c2ccccc2)cc1N1C(=O)[C@@H]2C[C@H]1CN2Cc1nc[nH]c1C,inactive

row,Compound,Potency
1,CCc1nc(-c2c3n(c(=O)n(CC(=O)Nc4cccc(OC)c4)c2=O)CCCC3)no1,"inconclusive: 17.8 µM [inhibitor, full curve]"
2,Cc1ccc(CNc2nc(CN3CCN(C=O)CC3)nc3ccccc23)o1,"inconclusive: 25.1 µM [inhibitor, partial curve, poor fit]"
3,Cc1nc(-c2cccs2)c(CCC(=O)N2CCN(c3ccccc3F)CC2)s1,"inconclusive: 44.7 µM [inhibitor, partial curve, poor fit]"
4,Cc1ccc(C(=O)n2nc(NCc3ccccc3)nc2NCc2ccccc2)cc1,"inconclusive: 31.6 µM [inhibitor, single point]"
5,COc1ccccc1C(=O)CC1(O)C(=O)N(Cc2ccccc2)c2ccc(Br)cc21 (configuration not stated),"inconclusive: 25.1 µM [inhibitor, partial curve, poor fit]"
6,CCOC(=O)c1ccc(CC(=O)c2oc3cc(O)ccc3c2C)o1,active: 15.8 µM
7,Cn1cc(-c2ccc(O)c(F)c2)c2nc(COc3ccc(Cl)cc3)cn2c1=O,"inconclusive: 4.47 µM [inhibitor, full curve]"
8,CC(C)C(NC(=O)c1c(F)cccc1F)C(=O)NCc1cnn(-c2ccccc2)c1 (configuration not stated),inactive
9,CN1C(=O)C(Cc2c[nH]c3ccccc23)NC1=S (configuration not stated),"inconclusive: 15.3 µM [inhibitor, partial curve, poor fit]"
10,Nc1cccc(OC2CCCC2)c1,"inconclusive: 28.2 µM [inhibitor, partial curve, poor fit]"
11,CCOc1cc(/C=C2\CCC/C(=C\c3cc(Cl)c(O)c(OCC)c3)C2=O)cc(Cl)c1O,"inconclusive: 28.2 µM [inhibitor, partial curve, poor fit]"
12,O=C(CN1CCN(c2ccc(O)cc2)CC1)N(C1CC1)C1CCS(=O)(=O)C1 (configuration not stated),"inconclusive: 63.1 µM [inhibitor, partial curve, poor fit]"
13,CC[n+]1c(/C=C(/C)SC)sc2ccccc21,"inconclusive: 6.31 µM [inhibitor, partial curve, poor fit]"
14,COc1ccc(CC(=O)NCc2nnc(SCc3ccc([N+](=O)[O-])cc3)n2C)cc1,inactive
15,CCN(CC)c1ccc(C=NNc2ccc([N+](=O)[O-])cn2)cc1,"inconclusive: 28.2 µM [inhibitor, partial curve]"
16,COc1ccccc1NC(=S)NC(=O)/C=C/c1ccco1,active: 39.8 µM
17,Cc1ccc(C(=O)c2c(NC(=O)c3ccccc3C)sc(C)c2C)cc1,"inconclusive: 79.4 µM [inhibitor, single point]"
18,O=S(=O)(NC[C@H]1O[C@@H](CO)[C@@H](O)[C@H]1N1CCN(c2ncccn2)CC1)c1ccccc1,"inconclusive: 14.1 µM [inhibitor, full curve]"
19,O=C(c1cccs1)N1C[C@@H](n2cc(-c3ccc(F)cc3)nn2)[C@H](O)C[C@@H]1c1ccc(Cl)cc1,"inconclusive: 112 µM [inhibitor, single point]"
20,NC(=O)C1CCN(Cc2cccc(OCc3ccccc3)c2)CC1,"inconclusive: 0.562 µM [inhibitor, full curve, poor fit]"
21,CSc1cccc(NC(=O)CN(c2cccc(C)c2)S(C)(=O)=O)c1,inactive
22,COc1ccc(CCC(=O)NCCc2csc(-c3ccc(F)cc3)n2)cc1,inactive
23,CCCCCCc1ccc(Nc2ccccc2)cc1O,"inconclusive: 28.2 µM [inhibitor, partial curve, poor fit]"

# An excerpt from the list above:
row,Compound,Potency
14,COc1ccc(CC(=O)NCc2nnc(SCc3ccc([N+](=O)[O-])cc3)n2C)cc1,inactive
15,CCN(CC)c1ccc(C=NNc2ccc([N+](=O)[O-])cn2)cc1,"inconclusive: 28.2 µM [inhibitor, partial curve]"
16,COc1ccccc1NC(=S)NC(=O)/C=C/c1ccco1,active: 39.8 µM

# (further entries)

row,Compound,Potency
1,O=C(Nc1ccc(S(=O)(=O)Nc2cnc3ccccc3n2)cc1)c1ccncc1,"inconclusive: 31.6 µM [inhibitor, partial curve]"
2,CCOc1ccc(-c2nc(N)ncc2-c2ccc(Cl)cc2)c(O)c1,inactive
3,COc1ccc(-c2c(C#N)c(SCC(=O)c3cc4ccccc4oc3=O)nc(C)c2C(=O)Nc2ccccc2)cc1,inactive
4,COc1cccc2c(C)nc(Nc3nc(-c4ccccc4)cc(=O)[nH]3)nc12,inactive
5,CC(C)=CC[N+](C)(C)CC#Cc1ccccc1,inactive
6,COc1ccccc1CN1CCOCC2(C1)CN([S+](=O)([O-])c1ccccc1)C2,inactive
7,COc1ccc(C(=O)CN2CCN(c3cc(C)nc4ccccc34)CC2)cc1,"inconclusive: 70.8 µM [inhibitor, partial curve, poor fit]"
8,Cc1ccc(C)c(S(=O)(=O)NCC(=O)Nc2ccc3c(c2)OCO3)c1,"inconclusive: 112 µM [inhibitor, single point]"
9,Cc1ccc(CNC(=O)N2CCCC(C(F)(F)F)C2)cc1 (configuration not stated),"inconclusive: 0.1 µM [inhibitor, full curve, poor fit]"
10,O=C1CSc2ccc(C(=O)NNC(=O)c3cc(-c4ccccc4)nc4ccccc34)cc2N1,"inconclusive: 12.6 µM [inhibitor, full curve]"
11,c1ccc(-c2ccc(CNCc3ccco3)cc2)cc1,"inconclusive: 0.562 µM [inhibitor, full curve, poor fit]"
12,COc1ccc(C23CC4CC(CC(C(=O)Nc5nc(C)cs5)(C4)C2)C3)cc1,"inconclusive: 44.7 µM [inhibitor, partial curve, poor fit]"
13,Oc1ccccc1CNCCCN1CCOCC1,"inconclusive: 0.316 µM [inhibitor, full curve, poor fit]"
14,O=C(NCCc1ccccc1)c1ccc(CS(=O)Cc2ccc(Cl)cc2)o1 (configuration not stated),"inconclusive: 44.7 µM [inhibitor, partial curve, poor fit]"
15,Cc1ccc(Cl)cc1-c1ccc(C=Nc2ccc(N3CCOCC3)cc2)o1,"inconclusive: 56.2 µM [inhibitor, partial curve, poor fit]"
16,Cc1cc(NC(=O)CCc2nc3cccnc3n2-c2ccccc2)ccc1Br,"inconclusive: 56.2 µM [inhibitor, partial curve, poor fit]"
17,O=c1oc2ccccc2c(NC2CCCC2)c1NS(=O)(=O)c1cccs1,inactive
18,Cc1nnc(SCc2ccccc2)nc1/C=C/NOCc1ccc(Cl)cc1Cl,"inconclusive: 5.62 µM [inhibitor, partial curve, poor fit]"
19,COc1ccc(Nc2nc(-c3cc4cc(OC)ccc4oc3=O)cs2)cc1,"inconclusive: 50.1 µM [inhibitor, partial curve, poor fit]"
20,Cc1c(C)c2ccc(OCC(=O)NCc3cccnc3)cc2oc1=O,inactive
21,CCOC(=O)C1(CCc2ccccc2)CCN(C(=O)c2occc2C)CC1,"inconclusive: 35.5 µM [inhibitor, partial curve]"
